PubChem BioAssay AID1224827, NIAID, 2016
Test: 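Confirm genes whose knock-down changes LPS-driven TNF promoter activity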 (follow-up of hits). Cell system: RAW264.7 G9 mouse macrophage reporter clone. Reagent: single siRNA against mouse genes, 100 nM siRNA. Time to read-out: siRNA for 2 days, then LPS about 16 h. Conditions: bacterial lipopolysaccharide (LPS), 10 ng/ml, cells fixed after overnight (about 16 h) stimulation. Measured: 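Imaged nuclear TNF reporter intensity, background removed, scaled per plate and to non-targeting control wells, as z-scores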. Scale: TNF reporter z-score, mean and TNF reporter z-score: higher = stronger Tnf promoter reporter signal; gene median z, three same-vendor siRNAs: higher = stronger Tnf reporter signal for the gene. Rule for the call: 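An siRNA is called active when its mean z-score over replicates is at least +2 or at most -2; control wells get no call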.
The deposit covers about 3,800 reagents; shown is an unselected part. About 2,200 of them (57%) count as active. 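Active means a strong reporter change in either direction; calls are per siRNA, not per gene; qiagen siRNAs gave weaker effects.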 A number with no mark means an inactive call. Reagents against one gene are numbered here. Further read-outs or replicates are left out here.

| target gene | siRNA no. | TNF reporter z-score, mean | gene median z, three same-vendor siRNAs | TNF reporter z-score, repeat 1 |
| --- | --- | --- | --- | --- |
| Zp3r (GeneID 22789) | 1 | 0.162 | -1.7 | 0.137 |
| Zp3r (GeneID 22789) | 2 | -1.7 | -1.7 | -2.35 |
| Zp3r (GeneID 22789) | 3 | -4.6 (active) | -1.7 | -5.49 |
| Zp3r (GeneID 22789) | 4 | 2.5 (active) | 0.0864 | 3.85 |
| Zp3r (GeneID 22789) | 5 | -0.256 | 0.0864 | 0.815 |
| Zp3r (GeneID 22789) | 6 | -1.42 | 0.0864 | -0.642 |
| Raet1b (GeneID 19369) | 1 | -2.24 (active) | -3.53 | -3 |
| Raet1b (GeneID 19369) | 2 | -3.53 (active) | -3.53 | -3.61 |
| Raet1b (GeneID 19369) | 3 | -4.99 (active) | -3.53 | -5.03 |
| Raet1b (GeneID 19369) | 4 | 1.44 | -0.0644 | 2.95 |
| Raet1b (GeneID 19369) | 5 | 0.189 | -0.0644 | 0.429 |
| Raet1b (GeneID 19369) | 6 | -0.49 | -0.0644 | -0.551 |
| Drap1 (GeneID 66556) | 1 | -2.12 (active) | -3.72 | -2.69 |
| Drap1 (GeneID 66556) | 2 | -3.72 (active) | -3.72 | -3.49 |
| Drap1 (GeneID 66556) | 3 | -4.45 (active) | -3.72 | -4.6 |
| Drap1 (GeneID 66556) | 4 | 0.764 | -0.436 | 1.96 |
| Drap1 (GeneID 66556) | 5 | -1.37 | -0.436 | -0.0864 |
| Drap1 (GeneID 66556) | 6 | -1.61 | -0.436 | -0.44 |
| Or5ar1 (GeneID 259017) | 1 | -2.69 (active) | -4.09 | -1.81 |
| Or5ar1 (GeneID 259017) | 2 | -4.34 (active) | -4.09 | -5.48 |
| Or5ar1 (GeneID 259017) | 3 | -4.9 (active) | -4.09 | -5.18 |
| Or5ar1 (GeneID 259017) | 4 | 6.34 (active) | -1.45 | 12 |
| Or5ar1 (GeneID 259017) | 5 | -1.64 | -1.45 | -2.28 |
| Or5ar1 (GeneID 259017) | 6 | -2.01 (active) | -1.45 | -1.9 |
| Fbxl22 (GeneID 74165) | 1 | 0.971 | -0.326 | -1.81 |
| Fbxl22 (GeneID 74165) | 2 | 0.565 | -0.326 | 1.15 |
| Fbxl22 (GeneID 74165) | 3 | -2.06 (active) | -0.326 | -3.48 |
| Fbxl22 (GeneID 74165) | 4 | 0.377 | -1.2 | 2.14 |
| Fbxl22 (GeneID 74165) | 5 | -1.2 | -1.2 | -1.09 |
| Fbxl22 (GeneID 74165) | 6 | -1.37 | -1.2 | -1.8 |
| H2-K1 (GeneID 14972) | 1 | -4.13 (active) | -5.18 | -2.22 |
| H2-K1 (GeneID 14972) | 2 | -4.82 (active) | -5.18 | -5.04 |
| H2-K1 (GeneID 14972) | 3 | -5.33 (active) | -5.18 | -5.32 |
| H2-K1 (GeneID 14972) | 4 | 0.0196 | -0.759 | 0.617 |
| H2-K1 (GeneID 14972) | 5 | 0.136 | -0.759 | 1.21 |
| H2-K1 (GeneID 14972) | 6 | -2.74 (active) | -0.759 | -3.19 |

A portion from the list above, for reference:
| target gene | siRNA no. | TNF reporter z-score, mean | gene median z, three same-vendor siRNAs | TNF reporter z-score, repeat 1 |
| --- | --- | --- | --- | --- |
| Drap1 (GeneID 66556) | 5 | -1.37 | -0.436 | -0.0864 |
| Drap1 (GeneID 66556) | 6 | -1.61 | -0.436 | -0.44 |
| Or5ar1 (GeneID 259017) | 1 | -2.69 (active) | -4.09 | -1.81 |

The list goes on:
| target gene | siRNA no. | TNF reporter z-score, mean | gene median z, three same-vendor siRNAs | TNF reporter z-score, repeat 1 |
| --- | --- | --- | --- | --- |
| Fam89b (GeneID 17826) | 1 | -1.32 | -2.66 | -2.2 |
| Fam89b (GeneID 17826) | 2 | -2.59 (active) | -2.66 | -3.12 |
| Fam89b (GeneID 17826) | 3 | -4.96 (active) | -2.66 | -4.65 |
| Fam89b (GeneID 17826) | 4 | 7.88 (active) | 2.4 | 13.2 |
| Fam89b (GeneID 17826) | 5 | 1.82 | 2.4 | 3.34 |
| Fam89b (GeneID 17826) | 6 | 0.53 | 2.4 | 2.26 |
| Galnt6 (GeneID 207839) | 1 | -3.19 (active) | -4.26 | -3.26 |
| Galnt6 (GeneID 207839) | 2 | -4.26 (active) | -4.26 | -4.11 |
| Galnt6 (GeneID 207839) | 3 | -4.86 (active) | -4.26 | -5.03 |
| Galnt6 (GeneID 207839) | 4 | 2.48 (active) | 0.112 | 4.39 |
| Galnt6 (GeneID 207839) | 5 | 0.69 | 0.112 | 1.72 |
| Galnt6 (GeneID 207839) | 6 | -3.48 (active) | 0.112 | -3.67 |
| Mrpl35 (GeneID 66223) | 1 | -2.5 (active) | -3.35 | -1.68 |
| Mrpl35 (GeneID 66223) | 2 | -3.61 (active) | -3.35 | -3.83 |
| Mrpl35 (GeneID 66223) | 3 | -3.84 (active) | -3.35 | -3.31 |
| Mrpl35 (GeneID 66223) | 4 | 0.00663 | -2.34 | 1.31 |
| Mrpl35 (GeneID 66223) | 5 | -2.63 (active) | -2.34 | -3.54 |
| Mrpl35 (GeneID 66223) | 6 | -3.09 (active) | -2.34 | -3.23 |
| Reps2 (GeneID 194590) | 1 | 1.97 | -3.63 | 2.3 |
| Reps2 (GeneID 194590) | 2 | -3.63 (active) | -3.63 | -4.05 |
| Reps2 (GeneID 194590) | 3 | -5.76 (active) | -3.63 | -6.02 |
| Reps2 (GeneID 194590) | 4 | 3.46 (active) | 1.95 | 5.97 |
| Reps2 (GeneID 194590) | 5 | 1.95 | 1.95 | 2.56 |
| Reps2 (GeneID 194590) | 6 | 0.472 | 1.95 | 2.69 |
| Hsp90b1 (GeneID 22027) | 1 | 0.73 | -1.48 | -0.316 |
| Hsp90b1 (GeneID 22027) | 2 | -1.48 | -1.48 | -1.63 |
| Hsp90b1 (GeneID 22027) | 3 | -2.47 (active) | -1.48 | -2.79 |
| Hsp90b1 (GeneID 22027) | 4 | 0.292 | -1.12 | 1.59 |
| Hsp90b1 (GeneID 22027) | 5 | 0.226 | -1.12 | 1.69 |
| Hsp90b1 (GeneID 22027) | 6 | -3.31 (active) | -1.12 | -3.44 |
| Neu1 (GeneID 18010) | 1 | -3.09 (active) | -3.73 | -2.63 |
| Neu1 (GeneID 18010) | 2 | -4.19 (active) | -3.73 | -3.25 |
| Neu1 (GeneID 18010) | 3 | -4.65 (active) | -3.73 | -3.91 |
| Neu1 (GeneID 18010) | 4 | 2.85 (active) | 1.39 | 5.02 |
| Neu1 (GeneID 18010) | 5 | 1.09 | 1.39 | 2.71 |
| Neu1 (GeneID 18010) | 6 | 0.158 | 1.39 | 2.09 |
| Cacna1d (GeneID 12289) | 1 | -0.849 | -3.72 | -1.54 |
| Cacna1d (GeneID 12289) | 2 | -3.72 (active) | -3.72 | -4.15 |
| Cacna1d (GeneID 12289) | 3 | -4.81 (active) | -3.72 | -4.35 |
| Cacna1d (GeneID 12289) | 4 | 1.1 | -1.73 | 2.27 |
| Cacna1d (GeneID 12289) | 5 | -1.93 | -1.73 | -2.15 |
| Cacna1d (GeneID 12289) | 6 | -1.96 | -1.73 | -2.17 |
